In patent publication US20220380937A1, “IDENTIFICATION OF SPLICING-DERIVED ANTIGENS FOR TREATING CANCER” (THE REGENTS OF THE UNIVERSITY OF CALIFORNIA, priority 2019, published 2022):
Some of these results come from one statement about several compounds together.

System: CD3+CD8+ T cells
Experiment: MHC class I dextramer-based T-cell recognition assay (flow cytometry of PBMCs/TILs with pMHC complexes)
Set-up: species or system human
Experimental: Assays to determine immunogenicity and/or TCR binding can be performed. One such as is the dextramer flow cytometery assay. Generally, custom-made HLA-matched MHC Class I dextramer:peptide (pMHC) complexes are developed or purchased (Immudex, Copenhagen, Denmark). T cells from peripheral blood mononuclear cells (PBMCs) or tumor-infiltrating lymphocytes (TILs) are incubated the pMHC complexes and stained, which are then run through a flow cytometer to determine if the peptide is capable of binding a TCR of a T cell.
Finally, the inventors sought to validate the immunogenicity and T-cell recognition of IRIS-identified candidate TCR targets using an MHC class I dextramer-based assay (12,24). […] The inventors analyzed samples from two HLA-A02:01 and four HLA-A03:01 patients, as well as samples from three HLA-A02:01 and three HLA-A03:01 healthy donors (Table 5, Supplementary Data).
Dextramer flow-cytometric analysis of PBMCs and TILs. […] Each pMHC complex was purchased with two separate tags for APC or PE fluorescence labeling, to increase specificity to targeted T cells with dual labeling. […]
For each set of pMHC complexes, at least 3×10^6 cells were stained according to manufacturer's guidelines. […] All samples were tested in a BD LSRII flow cytometer, and data were analyzed with FlowJo (Treestar). […]

Row | Sequence | epitope reactivity (recognition) in PBMCs (patient LB2867, PBMCs) | epitope reactivity in healthy donor T cells (the one recognizing healthy donor of three tested)
1 | KIGRLVTRK (listed as Homo sapiens) | marginal (‘marginal’ (binding 0.01-0.1% of cells)) | 
2 | YAIVWVNGV (listed as Homo sapiens) |  | marginal (‘marginal’ (binding 0.01-0.1% of cells))
